# Laboratory results reported in PubChem BioAssay AID504847 (National Center for Advancing Translational Sciences (NCATS), 2011).
# Sequences of proteins named here, by UniProt entry; tags and fusion partners are left off. A change or cut given only in a name is not applied to a line headed by its entry.
# UniProt P11473: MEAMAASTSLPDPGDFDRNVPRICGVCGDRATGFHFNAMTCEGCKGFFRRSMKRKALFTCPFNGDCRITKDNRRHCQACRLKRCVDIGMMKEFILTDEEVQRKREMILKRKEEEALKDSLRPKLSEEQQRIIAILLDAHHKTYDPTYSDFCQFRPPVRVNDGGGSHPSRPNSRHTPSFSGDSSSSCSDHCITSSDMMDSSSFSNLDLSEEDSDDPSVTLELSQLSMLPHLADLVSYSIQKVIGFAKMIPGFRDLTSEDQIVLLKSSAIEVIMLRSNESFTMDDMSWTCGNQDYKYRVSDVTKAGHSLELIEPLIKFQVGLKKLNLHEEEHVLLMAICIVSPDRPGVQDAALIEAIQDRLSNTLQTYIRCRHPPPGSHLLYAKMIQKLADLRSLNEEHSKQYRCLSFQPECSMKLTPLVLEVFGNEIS
# In all, about 400,000 compounds went through this assay and about 3,700 (0.93%) were called active. The inconclusive results got no clear call from the source; some entries with a clear call stand among them for comparison. Calls follow the shape of the dose curve; as a rule, active = well fitted inhibition curve with a large enough effect; inconclusive = small, poorly fitted or top-dose-only effect, or another doubt; inactive = no such curve, though single readings can be large or run the other way. Potencies of inconclusive entries are doubtful fits and often do not repeat. Some structures have more than one record in an assay (separate samples or runs), and their calls can disagree.
# Target: Vitamin D3 receptor (Homo sapiens) (UniProt P11473)
# Test: Inhibitors of the vitamin D receptor (VDR): qHTS
# Conditions: VDR-SRC2-3 peptide fluorescence polarization, 2 h; max response, negative = inhibition: active compounds read low
# Procedure, shortened: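 Compounds are added to VDR with labelled SRC2-3 coactivator peptide and held 2 h at room temperature. Inhibition of the VDR–peptide interaction is then read as a change in fluorescence polarization.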
# % is scaled to controls: 0 for no effect and ±100 for the full control effect; potency is read from the fitted curve at half-maximal effect.
Structure (SMILES),Potency,"max response, negative = inhibition"
O=C(CCC(=O)c1cccs1)OCC(=O)c1ccccc1F,"inconclusive: 89.1 µM [inhibitor, single point]",–
CC(C)(C)c1nnc(SCC(=O)c2ccccc2)n(N)c1=O,"inconclusive: 89.1 µM [inhibitor, partial curve, poor fit]",–
O=C(Nc1cccc(-c2nc3ncccc3o2)c1)c1ccc2c(c1)OCO2,"inconclusive: 89.1 µM [inhibitor, single point]",–
O=S(=O)([O-])CCC[n+]1c(SCCCS(=O)(=O)O)sc2ccc(Cl)cc21,"inconclusive: 12.6 µM [inhibitor, partial curve, poor fit]",–
O=c1nc2scc(-c3ccccc3)n2c2ccccc12,"inconclusive: 100 µM [inhibitor, single point]",–
COc1cc2c(cc1OC)CN(C(=O)CCC(=O)c1ccc(F)cc1)CC2,–,inactive: -13.3%
Cc1ccc(/C=C/C(=O)OC(C)C(=O)Nc2ccc(Cl)cn2)o1 (stereo not given),"inconclusive: 89.1 µM [inhibitor, single point]",–
CO/N=C/c1c(C(=O)OC)nn(-c2ccccc2)c1Cl,"inconclusive: 14.1 µM [inhibitor, partial curve, poor fit]",–
O=C(Cc1ccc(Cl)cc1)Nc1ccc(S(=O)(=O)Nc2ncccn2)cc1,–,inactive: -18.9%
CCOC(=O)C(=CNNc1ccccc1)C(=O)OCC,active: 50.1 µM,–
O=C(CSc1nc2ccccc2s1)N1N=C(c2cccs2)CC1c1ccc(F)cc1 (stereo not given),–,inactive: 4.09%
O=C(COc1ccccc1)NC1CCSC1=O (stereo not given),"inconclusive: 39.8 µM [inhibitor, partial curve, poor fit]",–
COc1ccc(CNCCC(c2ccc(OC)cc2)c2ccccc2OC)cc1 (stereo not given),–,inactive: -4.76%
N#CC1=C2SCN(c3ccccc3)CN2C(=O)CC1c1cccs1 (stereo not given),"inconclusive: 44.7 µM [inhibitor, partial curve, poor fit]",–
CCn1c(SCC(=O)N2CCOCC2)nc(O)cc1=O,"inconclusive: 1.26 µM [inhibitor, partial curve, poor fit]",–
CC(/C=C/c1ccccc1F)=N\NC(=O)c1ccc(Cl)cc1,"inconclusive: 50.1 µM [inhibitor, partial curve, poor fit]",–
COC(=O)c1c(NC(=O)COc2cc(C)c(Cl)c(C)c2)sc2c1CCCC2,"inconclusive: 89.1 µM [inhibitor, single point]",–
COc1ccccc1CNC(=O)C(C)n1nc(C)n2c(cc3occc32)c1=O (stereo not given),"inconclusive: 31.6 µM [inhibitor, single point]",–
COc1ccc(CNC(=O)COC(=O)c2ccc(OCc3c(C)noc3C)cc2)cc1OC,"inconclusive: 50.1 µM [inhibitor, partial curve, poor fit]",–
CCOc1cccc(CNc2ccc(O)cc2)c1OCc1ccccc1Cl,active: 39.8 µM,inactive: -28%
Cc1onc(-c2c(F)cccc2Cl)c1C(=O)NCc1ccc2c(c1)OCO2,–,inactive: -8.1%
CC1CCCN(C(=O)c2cc(-c3ccco3)nc3ccccc23)C1 (stereo not given),active: 35.5 µM,–

# Single records, as listed above. Values in the order: Potency | max response, negative = inhibition
# O=C(COc1ccccc1)NC1CCSC1=O (stereo not given) in the list: inconclusive: 39.8 µM [inhibitor, partial curve, poor fit] | –
# COc1ccccc1CNC(=O)C(C)n1nc(C)n2c(cc3occc32)c1=O (stereo not given) in the list: inconclusive: 31.6 µM [inhibitor, single point] | –
# Cc1ccc(/C=C/C(=O)OC(C)C(=O)Nc2ccc(Cl)cn2)o1 (stereo not given) in the list: inconclusive: 89.1 µM [inhibitor, single point] | –

# Further compounds

Structure (SMILES),Potency,"max response, negative = inhibition"
CCc1nnc2c(NCCc3ccc(OC)c(OC)c3)nc3ccccc3n12,"inconclusive: 31.6 µM [inhibitor, partial curve, poor fit]",–
CN(C)C(=O)c1ccc(-c2cncnc2-n2ccnc2)cc1,"inconclusive: 39.8 µM [inhibitor, partial curve, poor fit]",–
CC(=O)Nc1ccc(/C(C)=N/Nc2nc(N3CCOCC3)nc(N3CCOCC3)n2)cc1,"inconclusive: 89.1 µM [inhibitor, single point]",–
COc1ccc(NC(=O)Nc2ccc3c(c2)C(=O)N([C@H](C)CO)C[C@H](C)[C@@H](CN(C)C(=O)Nc2ccc4c(c2)OCO4)O3)cc1,"inconclusive: 89.1 µM [inhibitor, single point]",–
C=C(CCC12O[C@H](C(=O)O)[C@@](O)(C(=O)O)[C@](C(=O)O)(O1)[C@H](OC(=O)/C=C/[C@@H](C)C[C@@H](C)CC)[C@H]2O)[C@@H](OC(C)=O)[C@H](C)Cc1ccccc1,"inconclusive: 22.4 µM [inhibitor, partial curve, poor fit]",–
Cc1ccc(NC(=O)CCNS(=O)(=O)c2ccc3[nH]c(=O)oc3c2)cc1C,–,inactive: -14.7%
COc1cc(-c2ccc(N=Nc3ccc4c(S(=O)(=O)O)cc(S(=O)(=O)O)c(N)c4c3O)c(OC)c2)ccc1N=Nc1ccc2c(S(=O)(=O)O)cc(S(=O)(=O)O)c(N)c2c1O,"inconclusive: 5.62 µM [inhibitor, partial curve, poor fit]",–
CCN=C1S/C(=C\c2ccc(-c3cccc(C(=O)O)c3)o2)C(=O)N1CC,–,inactive: -20.9%
CON=C1C=C(C)C(=O)C(C)=C1C,–,inactive: -5.6%
CCn1c(SCC(=O)c2ccc(Cl)cc2)nnc1C(C)C,"inconclusive: 89.1 µM [inhibitor, single point]",–
CCCCCN(C(=O)CCC(=O)OCc1cccc(Br)c1)c1c(N)n(CCCC)c(=O)[nH]c1=O,–,inactive: 8.79%
Cc1ccc(-n2nnnc2C2CCN(S(=O)(=O)c3ccc(OC(F)(F)F)cc3)CC2)cc1,–,inactive: -0.322%
CC1(C)CC(=O)c2cnc(N)nc2C1,"inconclusive: 39.8 µM [inhibitor, single point]",–
O=C(COC(=O)/C=C/c1ccc(Cl)cc1)Nc1ccc2c(c1)OCCO2,"inconclusive: 70.8 µM [inhibitor, single point]",–
CCOc1ccc(Cn2c(O)cc(=O)[nH]c2=O)cc1,"inconclusive: 14.1 µM [inhibitor, full curve, poor fit]",–
C[C@@H]1CC=C[C@H]2[C@H]1C(=O)N(Cc1ccccc1)[C@H]2c1cccc([N+](=O)[O-])c1,–,inactive: -11.2%
Cc1ccc2c(c1)C(=O)CC1(CCCC1)O2,"inconclusive: 10 µM [inhibitor, partial curve, poor fit]",–
CCCC[C@H]1C(=O)N(c2ccccc2)N(c2ccc(O)cc2)C1=O,active: 10 µM,–
CC(=O)C1=C(O)C(=O)N(c2ccc(Br)cc2)C1c1ccc(Cl)cc1 (stereo not given),"inconclusive: 56.2 µM [inhibitor, partial curve, poor fit]",–
FC(F)(F)c1cccc(CNC2c3ccccc3-c3ccccc32)c1,–,inactive: -4.25%
COc1ccc(N2CC(C(=O)Nc3nnc(SCC(=O)NCc4ccco4)s3)CC2=O)cc1 (stereo not given),"inconclusive: 89.1 µM [inhibitor, single point]",–
CCOC(=O)N1CCc2c(sc3c2c(=O)n(Cc2ccccc2)c(=O)n3Cc2ccccc2F)C1,–,inactive: 21.5%

Structure (SMILES),Potency,"max response, negative = inhibition"
O=C(c1ccncc1)N1CCC[C@@]2(CCN(c3ccccn3)C2)C1,"inconclusive: 89.1 µM [inhibitor, partial curve, poor fit]",–
COc1cccc(C=NCCNC(=O)c2nonc2N)c1O,"inconclusive: 7.94 µM [inhibitor, partial curve]",–
O=C(c1c(F)c(F)c(F)c(F)c1F)N1CCN(c2cccc(C(F)(F)F)c2)CC1,"inconclusive: 22.4 µM [inhibitor, single point]",–
Cc1cc(C)nc(SCC(=O)NC(=O)c2ccccc2O)n1,"inconclusive: 70.8 µM [inhibitor, partial curve, poor fit]",–
CN(CC(=O)Nc1ccccc1Cl)C(=O)COC(=O)CSc1ccc(F)cc1,–,inactive: -2.41%
Cc1nc2sc(C(=O)Nc3ccc(F)cc3)c(N)c2c(-c2ccc(Br)cc2)c1C(=O)Nc1ccc(Cl)cc1,–,inactive: -28.9%
CCOC(=O)N1CCN(C(=O)CSc2nnc(-c3cc(OC)ccc3OC)o2)CC1,"inconclusive: 3.16 µM [inhibitor, single point]",–
CCCCn1c(N)c(N(CC(C)C)C(=O)c2cc(Cl)nc3ccccc23)c(=O)[nH]c1=O,"inconclusive: 79.4 µM [inhibitor, single point]",–
CC(C)(C)C1CCc2c(sc(NC(=O)C3CC=CCC3C(=O)O)c2C#N)C1 (stereo not given),"inconclusive: 79.4 µM [inhibitor, partial curve, poor fit]",–
CCOc1ccc(-c2nc(CSCC(=O)NC3CC3)c(C)o2)cc1,–,inactive: 10.5%
N#CC1=C(N)Oc2nc(-c3ccccc3)[nH]c2C1c1cccnc1 (stereo not given),–,inactive: -21.4%
OCCN1CCN(C(=S)c2ccc(Cl)cc2)CC1,"inconclusive: 89.1 µM [inhibitor, single point]",–
CCN(CCO)c1ccc(-n2c(N)c(C(=O)OC)c3nc4ccccc4nc32)cc1,"inconclusive: 56.2 µM [inhibitor, partial curve, poor fit]",–
COc1ccc(C2C=C(C34CC5CC(CC(C5)C3)C4)NC(=S)N2)cc1 (stereo not given),"inconclusive: 20 µM [inhibitor, partial curve, poor fit]",–
CN(C)CCC(=O)c1ccc2c(c1)OCO2,active: 79.4 µM,–
O=C(CCN1C(=O)/C(=C/c2ccccc2)SC1=S)Nc1cccnc1,"inconclusive: 79.4 µM [inhibitor, single point]",–
Cc1c(Cl)sn(-c2ccc(Cl)cc2)c1=O,active: 44.7 µM,–
O=[N+]([O-])c1ccccc1N/N=C1\CCc2ccccc21,"inconclusive: 89.1 µM [inhibitor, single point]",–
CCCCN(CCCC)CCNC(=O)c1cn(CC)c2ccc(S(=O)(=O)N3CCCC3)cc2c1=O,"inconclusive: 89.1 µM [inhibitor, single point]",–
CCc1ccccc1N1C(=O)N(Cc2cccc(Cl)c2)c2ccccc2S1(=O)=O,–,inactive: 8.83%
